Some of these results come from one statement about several compounds together.
What was measured:
Format in all cases: cell-based
[1] = system: Penicillium cyclopium Westling (IMI 229034); experiment: Conidiation-inducing bioassay in shaken flask submerged culture; details: for level of conidiation (percent of conidium-bearing hyphal tips): 28 hours after inoculation, compound added at the moment of inoculation, two different concentrations (FIG. 1), control did not conidiate; for threshold concentration (minimum concentration required to induce conidiation): Penicillium cyclopium, conidiogenol and/or conidiogenone singly or in combination
[2] = system: Penicillium notatum; experiment: Conidiation-inducing bioassay in other Penicillium species; details: approximately 250 ng/mL (singly or in combination), at or before 24 hours of incubation
[3] = system: P. italicum; experiment: as above; details: approximately 250 ng/mL (singly or in combination), at or before 24 hours of incubation
[4] = system: P. spinulosum; experiment: as above; details: approximately 250 ng/mL (singly or in combination), at or before 24 hours of incubation
[5] = system: P. luteum; experiment: as above; details: approximately 250 ng/mL (singly or in combination), at or before 24 hours of incubation
[6] = system: P. thomii; experiment: as above; details: approximately 250 ng/mL (singly or in combination), at or before 24 hours of incubation
[7] = system: P. oxalicum; experiment: as above; details: approximately 250 ng/mL (singly or in combination), at or before 24 hours of incubation

Row | SMILES | level of conidiation (percent of conidium-bearing hyphal tips) [1] [%] | threshold concentration (minimum concentration required to induce conidiation) [1] [ng/mL] | conidiating hyphal tips [2] [%] | conidiating hyphal tips [3] [%] | conidiating hyphal tips [4] [%] | conidiating hyphal tips [5] [%] | conidiating hyphal tips [6] [%] | conidiating hyphal tips [7] [%]
1 | CC1C(O)CC(O)C2(C)CCC3C4C(C)(C)CCC4(C)CC132 (stereo not drawn) [conidiogenol, (1R*, 3R*, 7R*, 8S*, 11R*, 12R*, 14S*, 15R*)-3,6,6,11,15-pentamethyl-tetracyclo[9.4.0.0^1,8.0^3,7]-pentadecan-12,14-diol] | > 80 | 50 to 125 | > 50 | > 50 | > 50 | > 50 | > 50 | > 50
2 | CC1C(O)CC(=O)C2(C)CCC3C4C(C)(C)CCC4(C)CC132 (stereo not drawn) [conidiogenone, (1R*, 3R*, 7R*, 8S*, 11R*, 14S*, 15R*)-14-Hydroxy-3,6,6,11,15pentamethyl-tetracyclo[9.4.0.0^1,8.0^3,7]-pentadecan-12-one] | > 80 | 50 to 125 | > 50 | > 50 | > 50 | > 50 | > 50 | > 50

Reference: patent US6682914B2, “Bioactive tetracyclic diterpene compounds and methods of preparation and use thereof” (Universidad del Pais Vasco/Euskal Herriko Unibersitatea, priority 2001, dated 2004)
